The structures given here were assigned with low confidence; some may be wrong.
Tests used:
[1] = biological target: Human nerve growth factor receptor (Homo sapiens, UniProt P04629); assay: Receptor inhibitory activity using cells expressing a nerve growth factor receptor (NGF-dependent intracellular Ca increase, FLIPR); settings: HEK293 cells stably expressing Human nerve growth factor receptor; NGF about 100 to 150 ng/ml; Ca concentration change
Method: 1. Experiment to Measure a Receptor Inhibitory Activity Using Cells Expressing a Nerve Growth Factor Receptor
The nerve growth factor receptor inhibitory activity was measured by using the increase in a ligand-dependent calcium concentration in cells as an index. HEK293 cells (American Type Culture Collection) that stably expressed Human nerve growth factor receptor were dispensed onto a 96-well poly-D-lysine-coated plate (Product Name: Biocoat, PDL96W black/clear, by Nippon Becton Dickinson) to a 2×10^4 cells/well at the day before the experiment, and incubated overnight at 37° C. under 5% carbon dioxide (CO2) in a culture medium containing 10% fetal bovine serum (FBS) (Product Name: DMEM, Invitrogen Corporation). The culture medium was replaced by a washing solution: a Hank's balanced salt solution)(HBSS), containing a 1.5 μM loading buffer (fluorescent indicator (Product Name: Fluo-4-AM, […].)), 20 mM 2-[4-(2-hydroxyethyl)-1-piperazinyl]ethanesulfonic acid (HEPES)-sodium hydroxide (NaOH), 2.5 mM Probenecid, 0.1% bovine serum albumin (BSA), and left to stand at room temperature for 3 hours, and the cells were washed using a plate washer (Product Name: ELx405, BIO-TEK instrument Corporation) in which a washing solution had been set up. The compound that had been preliminarily dissolved and diluted in a washing solution was added thereto, and set up in a system for measuring a calcium (Ca) concentration in a cell (Product Name: FLIPR, Molecular Devices Corporation). After 5 minutes, a nerve growth factor (NGF, mouse derived 2.5S, Alomone) corresponding on 80% stimulation of a maximum response was added (to a final concentration of about 100 to 150 ng/ml) to measure the change in Ca concentrations in cells. A difference between a maximum value and a minimum value in Ca concentrations in cells was determined, and kept as measurement data. With a response upon addition of NGF being set at 0%, and a response upon addition of a buffer being set at 100%, the concentration causing 50% inhibition was determined as an IC50 value. In the table, Ex represents Compound No. of Examples as described later. From the results of this test, it was confirmed that the compound of the present invention has a nerve growth factor receptor inhibitory activity.

Protein sequences, listed by entry. Tags and fused reporters are not part of them. Residues count along the entry.
UniProt P04629, 33-796 limits assumed: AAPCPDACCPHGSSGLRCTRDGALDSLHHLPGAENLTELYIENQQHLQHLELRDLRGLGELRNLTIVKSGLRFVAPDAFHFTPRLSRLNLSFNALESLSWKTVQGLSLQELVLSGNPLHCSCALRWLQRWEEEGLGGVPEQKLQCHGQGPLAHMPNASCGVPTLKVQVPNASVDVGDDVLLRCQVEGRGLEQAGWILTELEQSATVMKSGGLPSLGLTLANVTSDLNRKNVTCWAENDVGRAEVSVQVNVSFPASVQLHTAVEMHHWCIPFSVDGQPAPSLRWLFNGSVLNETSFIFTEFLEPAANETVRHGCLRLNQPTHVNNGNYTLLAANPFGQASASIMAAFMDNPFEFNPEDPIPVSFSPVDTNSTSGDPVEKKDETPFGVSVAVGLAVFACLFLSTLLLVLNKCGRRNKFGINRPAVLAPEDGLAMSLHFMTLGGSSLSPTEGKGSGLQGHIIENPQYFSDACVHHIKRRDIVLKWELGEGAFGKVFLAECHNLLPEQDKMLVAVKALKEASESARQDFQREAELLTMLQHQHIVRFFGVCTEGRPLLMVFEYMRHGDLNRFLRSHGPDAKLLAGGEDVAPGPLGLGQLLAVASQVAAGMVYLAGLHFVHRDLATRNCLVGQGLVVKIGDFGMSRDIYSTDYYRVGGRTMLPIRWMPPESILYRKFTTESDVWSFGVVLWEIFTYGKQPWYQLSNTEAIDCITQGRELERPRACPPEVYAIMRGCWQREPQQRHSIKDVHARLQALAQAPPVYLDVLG
UniProt P35739, 33-799 limits assumed: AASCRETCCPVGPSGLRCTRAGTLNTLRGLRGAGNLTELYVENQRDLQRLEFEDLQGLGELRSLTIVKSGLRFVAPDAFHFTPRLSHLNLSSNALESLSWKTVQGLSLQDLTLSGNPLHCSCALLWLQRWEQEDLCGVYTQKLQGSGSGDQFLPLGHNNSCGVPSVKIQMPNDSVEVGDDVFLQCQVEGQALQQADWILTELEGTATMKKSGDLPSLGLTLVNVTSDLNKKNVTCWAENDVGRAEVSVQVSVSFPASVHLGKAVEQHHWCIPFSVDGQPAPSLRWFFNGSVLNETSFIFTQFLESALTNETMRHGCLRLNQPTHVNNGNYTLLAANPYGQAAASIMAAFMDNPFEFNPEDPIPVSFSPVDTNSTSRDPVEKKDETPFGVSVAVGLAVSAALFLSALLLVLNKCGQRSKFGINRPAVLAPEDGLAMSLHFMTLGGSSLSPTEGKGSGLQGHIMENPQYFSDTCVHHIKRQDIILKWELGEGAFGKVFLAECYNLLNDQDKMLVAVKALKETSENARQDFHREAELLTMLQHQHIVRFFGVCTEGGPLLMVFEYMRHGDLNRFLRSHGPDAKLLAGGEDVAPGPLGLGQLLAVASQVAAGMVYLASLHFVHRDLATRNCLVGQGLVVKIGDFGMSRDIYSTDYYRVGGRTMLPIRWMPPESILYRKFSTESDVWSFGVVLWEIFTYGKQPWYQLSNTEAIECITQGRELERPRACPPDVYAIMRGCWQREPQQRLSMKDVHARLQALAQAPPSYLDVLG

[2] = biological target: trkA receptor (Rattus norvegicus, UniProt P35739); assay: Inhibitory activity on enhanced vascular permeability caused by NGF in rat (Evans blue); settings: Wistar female rat, 10 mg/kg oral, NGF intracutaneous 60 min after administration, vehicle group set at 100%
Method: 2. Evaluation of the Inhibitory Activity of the Compound on Enhanced Vascular Permeability Caused by NGF in Rat
The in vivo trkA receptor inhibitory activity of the compound was examined. A Wistar female rat (SLC) were forced to be orally administered with the compound (0.5% methylcellulose solution) 10 mg/3 ml/kg or a vehicle (0.5% methylcellulose solution) 3 ml/kg. Under ether anesthesia performed at 60 min after administration, physiological saline or 1 ug/ml NGF (NGF, mouse derived 2.5S, Alomone) was intracutaneously administered to the back at 50 ul/site, and then immediately a 1% Evans blue solution (dissolved in physiological saline) was administered through caudal vein at 3 ml/kg. At a time point of 10 min after the administration, the skin on the back was taken, and shaken in formamide for 16 hours. After shaking, an absorption of Evans blue extracted with formamide was measured by an absorption meter (wavelength: 620 nm), and the concentration was determined by a calibration curve method. A value obtained by subtracting the concentration of Evans blue at a site administered with physiological saline from the concentration of Evans blue at a site administered with NGF has a function dependent on NGF, and an inhibitory rate of the compound group was determined with a group administered with vehicle being set at 100%. […]

[3] = test system: CPA-induced urinary frequency in rat; assay: Effects on cyclophosphamide (CPA)-induced urinary frequency in rat; settings: Wistar female rat, 2 days after CPA; dose 10 mg/kg oral; evaluation 30-90 min after administration; value before administration = 100%
Method: 3. Effects of the Compound on the Cyclophosphamide (CPA)-Induced Urinary Frequency in Rat
CPA (150 mg/5 ml/kg) was intraperitoneally administered to a Wistar female rat (Charles river laboratories), and after two days, the experiment was carried out. It was forced to be orally administered with distilled water (30 ml/kg), and then placed in a metabolic cage, and the voided urine weight and the urination frequency were continuously measured for 1 hour. The compound (0.5% methylcellulose solution) 3 or 10 mg/5 ml/kg, or a vehicle (0.5% methylcellulose solution) 5 ml/kg was orally administered, and after 5 to 30 min, the urinary functions were measured after loading water in the same manner as described above. A total voided urine weight was divided by the total urination frequency to determine an effective bladder capacity. With the value before administration of the compound being set at 100%, a rate of change in the effective bladder capacity caused by administration of the compound was determined.
In this test, at 2 days after CPA treatment, the effective bladder capacity was decreased (about 0.5 ml), indicating urinary frequency condition.

Row | SMILES | IC50 [1] [nM] | Inhibition rate [2] [%] | Change rate of effective bladder capacity [3] [%]
1 | COC(=O)Cc1ccc(NC(=O)c2csc(-c3ccccc3)n2)c(N2CCN(CC(N)=O)CC2)c1 | 4.3 | – | –
2 | O=C(Nc1ccccc1N1CCC(O)CC1)c1coc(-c2ccccc2)n1 | 2.4 | – | –
3 | NC(=O)C1CCN(c2ccccc2NC(=O)c2csc(-c3ccccc3)n2)C1 (stereo not drawn) | 4.7 | – | –
4 | NC(=O)C1CCN(c2ccccc2NC(=O)c2coc(N3CCOCC3)n2)CC1 | 2.3 | 91 | 177

— patent US8163746B2, “Azolecarboxamide derivative” (Astellas Pharma Inc., priority 2006, dated 2012)
